According to PMC7726220:
Results are given in words; binding and its absence hold for the method and conditions named. In cells and extracts the contact can be indirect. Some binding calls cover weakened binding; strength is not graded here. Where a sequence is shown, tags or fusion partners need not be part of it.

T1: FL Myc-tagged WLS (WLS-Myc) (mouse) (UniProt Q6DID7)
T1 sequence: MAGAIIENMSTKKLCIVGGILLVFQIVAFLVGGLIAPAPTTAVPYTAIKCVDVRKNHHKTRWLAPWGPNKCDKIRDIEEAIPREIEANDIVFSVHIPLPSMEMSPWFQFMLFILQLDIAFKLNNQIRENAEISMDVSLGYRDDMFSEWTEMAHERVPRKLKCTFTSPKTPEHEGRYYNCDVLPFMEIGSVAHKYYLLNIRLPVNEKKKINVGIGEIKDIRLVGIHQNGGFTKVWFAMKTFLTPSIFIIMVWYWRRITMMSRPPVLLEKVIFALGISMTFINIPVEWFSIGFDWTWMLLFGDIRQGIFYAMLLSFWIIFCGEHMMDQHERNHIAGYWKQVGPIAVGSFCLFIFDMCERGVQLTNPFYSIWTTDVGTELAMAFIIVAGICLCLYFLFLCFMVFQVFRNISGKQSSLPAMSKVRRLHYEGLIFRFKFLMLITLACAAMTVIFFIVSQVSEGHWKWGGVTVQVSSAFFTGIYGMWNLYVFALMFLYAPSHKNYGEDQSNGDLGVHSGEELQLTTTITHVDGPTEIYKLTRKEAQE

T2: HA-tagged full-length WLS (FL WLS-HA) (mouse) (UniProt Q6DID7)
T2 sequence: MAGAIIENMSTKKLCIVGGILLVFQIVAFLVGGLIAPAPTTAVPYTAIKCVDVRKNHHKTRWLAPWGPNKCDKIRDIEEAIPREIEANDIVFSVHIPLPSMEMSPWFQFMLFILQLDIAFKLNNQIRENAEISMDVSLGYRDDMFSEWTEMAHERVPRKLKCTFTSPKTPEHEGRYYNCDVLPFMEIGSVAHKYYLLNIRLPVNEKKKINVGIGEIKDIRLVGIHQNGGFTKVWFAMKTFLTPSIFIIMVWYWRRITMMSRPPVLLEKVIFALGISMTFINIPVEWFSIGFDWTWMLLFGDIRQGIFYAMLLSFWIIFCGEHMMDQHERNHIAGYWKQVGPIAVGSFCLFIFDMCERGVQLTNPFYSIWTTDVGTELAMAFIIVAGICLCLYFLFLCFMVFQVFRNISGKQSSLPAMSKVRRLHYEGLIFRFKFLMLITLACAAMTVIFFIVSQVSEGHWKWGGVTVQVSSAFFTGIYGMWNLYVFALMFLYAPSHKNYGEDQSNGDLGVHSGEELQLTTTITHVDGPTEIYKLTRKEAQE

T3: Flag-tagged full-length TMEM132A (FL T132A-Flag) (mouse) (UniProt Q922P8)
T3 sequence: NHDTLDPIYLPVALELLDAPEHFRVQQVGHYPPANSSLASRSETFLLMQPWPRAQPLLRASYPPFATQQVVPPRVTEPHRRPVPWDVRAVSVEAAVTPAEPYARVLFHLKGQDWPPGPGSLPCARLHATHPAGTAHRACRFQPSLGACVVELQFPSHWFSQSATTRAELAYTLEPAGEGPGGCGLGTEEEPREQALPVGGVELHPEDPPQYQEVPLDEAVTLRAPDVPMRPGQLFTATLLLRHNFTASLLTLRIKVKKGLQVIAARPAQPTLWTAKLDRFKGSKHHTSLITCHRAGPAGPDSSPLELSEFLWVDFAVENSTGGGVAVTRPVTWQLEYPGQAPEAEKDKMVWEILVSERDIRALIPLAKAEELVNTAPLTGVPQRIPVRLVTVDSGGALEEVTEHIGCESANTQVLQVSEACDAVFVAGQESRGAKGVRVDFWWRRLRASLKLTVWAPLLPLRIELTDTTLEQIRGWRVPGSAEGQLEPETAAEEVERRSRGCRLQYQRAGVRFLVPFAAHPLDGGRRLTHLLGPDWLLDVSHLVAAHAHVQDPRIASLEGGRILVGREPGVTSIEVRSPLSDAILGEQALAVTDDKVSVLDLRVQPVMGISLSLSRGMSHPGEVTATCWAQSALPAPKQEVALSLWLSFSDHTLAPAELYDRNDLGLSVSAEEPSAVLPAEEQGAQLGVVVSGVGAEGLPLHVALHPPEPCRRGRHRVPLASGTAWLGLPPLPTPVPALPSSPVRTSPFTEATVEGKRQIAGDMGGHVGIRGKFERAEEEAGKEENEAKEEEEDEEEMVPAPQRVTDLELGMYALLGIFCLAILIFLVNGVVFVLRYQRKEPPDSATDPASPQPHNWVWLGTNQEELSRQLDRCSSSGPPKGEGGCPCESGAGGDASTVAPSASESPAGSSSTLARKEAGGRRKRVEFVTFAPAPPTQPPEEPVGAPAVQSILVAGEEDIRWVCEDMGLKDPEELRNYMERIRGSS


What was measured:
Assay in all cases: co-IP; HEK 293T cells transiently transfected with tagged constructs (or endogenous partner); lysis in 50 mM Tris-HCl pH 8.0, 150 mM NaCl, 10% glycerol, 1 mM EDTA, 1% DDM or 0.5% NP-40; anti-Flag M2, anti-c-Myc or anti-HA magnetic beads; Western blot; in Figure 6D with or without overexpressed TMEM132A
[1] = molecular target: T1, FL Myc-tagged WLS (WLS-Myc) (mouse)
[2] = molecular target: T2, HA-tagged full-length WLS (FL WLS-HA) (mouse)
[3] = molecular target: T3, Flag-tagged full-length TMEM132A (FL T132A-Flag) (mouse)

Binder	binding [1]	binding [2]	binding [3]
Flag-tagged full-length TMEM132A (FL T132A-Flag) (protein, UniProt Q922P8 33-1018) NHDTLDPIYLPVALELLDAPEHFRVQQVGHYPPANSSLASRSETFLLMQPWPRAQPLLRASYPPFATQQVVPPRVTEPHRRPVPWDVRAVSVEAAVTPAEPYARVLFHLKGQDWPPGPGSLPCARLHATHPAGTAHRACRFQPSLGACVVELQFPSHWFSQSATTRAELAYTLEPAGEGPGGCGLGTEEEPREQALPVGGVELHPEDPPQYQEVPLDEAVTLRAPDVPMRPGQLFTATLLLRHNFTASLLTLRIKVKKGLQVIAARPAQPTLWTAKLDRFKGSKHHTSLITCHRAGPAGPDSSPLELSEFLWVDFAVENSTGGGVAVTRPVTWQLEYPGQAPEAEKDKMVWEILVSERDIRALIPLAKAEELVNTAPLTGVPQRIPVRLVTVDSGGALEEVTEHIGCESANTQVLQVSEACDAVFVAGQESRGAKGVRVDFWWRRLRASLKLTVWAPLLPLRIELTDTTLEQIRGWRVPGSAEGQLEPETAAEEVERRSRGCRLQYQRAGVRFLVPFAAHPLDGGRRLTHLLGPDWLLDVSHLVAAHAHVQDPRIASLEGGRILVGREPGVTSIEVRSPLSDAILGEQALAVTDDKVSVLDLRVQPVMGISLSLSRGMSHPGEVTATCWAQSALPAPKQEVALSLWLSFSDHTLAPAELYDRNDLGLSVSAEEPSAVLPAEEQGAQLGVVVSGVGAEGLPLHVALHPPEPCRRGRHRVPLASGTAWLGLPPLPTPVPALPSSPVRTSPFTEATVEGKRQIAGDMGGHVGIRGKFERAEEEAGKEENEAKEEEEDEEEMVPAPQRVTDLELGMYALLGIFCLAILIFLVNGVVFVLRYQRKEPPDSATDPASPQPHNWVWLGTNQEELSRQLDRCSSSGPPKGEGGCPCESGAGGDASTVAPSASESPAGSSSTLARKEAGGRRKRVEFVTFAPAPPTQPPEEPVGAPAVQSILVAGEEDIRWVCEDMGLKDPEELRNYMERIRGSS	binds	binds	–
WLS-HA truncation aa 1-264 (domain or fragment, UniProt Q6DID7-1 1-264) MAGAIIENMSTKKLCIVGGILLVFQIVAFLVGGLIAPAPTTAVPYTAIKCVDVRKNHHKTRWLAPWGPNKCDKIRDIEEAIPREIEANDIVFSVHIPLPSMEMSPWFQFMLFILQLDIAFKLNNQIRENAEISMDVSLGYRDDMFSEWTEMAHERVPRKLKCTFTSPKTPEHEGRYYNCDVLPFMEIGSVAHKYYLLNIRLPVNEKKKINVGIGEIKDIRLVGIHQNGGFTKVWFAMKTFLTPSIFIIMVWYWRRITMMSRPPV	–	–	binds
HA-tagged WNT5A (FL WNT5A-HA) (ligand, UniProt P22725-1 62-380) IIGAQPLCSQLAGLSQGQKKLCHLYQDHMQYIGEGAKTGIKECQYQFRHRRWNCSTVDNTSVFGRVMQIGSRETAFTYAVSAAGVVNAMSRACREGELSTCGCSRAARPKDLPRDWLWGGCGDNIDYGYRFAKEFVDARERERIHAKGSYESARILMNLHNNEAGRRTVYNLADVACKCHGVSGSCSLKTCWLQLADFRKVGDALKEKYDSAAAMRLNSRGKLVQVNSRFNSPTTQDLVYIDPSPDYCVRNESTGSLGTQGRLCNKTSEGMDGCELMCCGRGYDQFKTVQTERCHCKFHWCCYVKCKKCTEIVDQFVCK	binds	–	binds

Second part, the binder after the results:

binding [1]	binding [2]	binding [3]	Binder
–	binds	–	endogenous TMEM132A of HEK 293T cells (protein, UniProt Q24JP5 36-1023) CGQAPLDPVYLPAALELLDAPEHFRVQQVGHYPPANSSLSSRSETFLLLQPWPRAQPLLRASYPPFATQQVVPPRVTEPHQRPVPWDVRAVSVEAAVTPAEPYARVLFHLKGQDWPPGSGSLPCARLHATHPAGTAHQACRFQPSLGACVVELELPSHWFSQASTTRAELAYTLEPAAEGPGGCGSGEENDPGEQALPVGGVELRPADPPQYQEVPLDEAVTLRVPDMPVRPGQLFSATLLLRHNFTASLLTLRIKVKKGLHVTAARPAQPTLWTAKLDRFKGSRHHTTLITCHRAGLTEPDSSPLELSEFLWVDFVVENSTGGGVAVTRPVTWQLEYPGQAPEAEKDKMVWEILVSERDIRALIPLAKAEELVNTAPLTGVPQHVPVRLVTVDGGGALVEVTEHVGCESANTQVLQVSEACDAVFVAGKESRGARGVRVDFWWRRLRASLRLTVWAPLLPLRIELTDTTLEQVRGWRVPGPAEGPAEPAAEASDEAERRARGCHLQYQRAGVRFLAPFAAHPLDGGRRLTHLLGPDWLLDVSHLVAPHARVLDSRVASLEGGRVVVGREPGVTSIEVRSPLSDSILGEQALAVTDDKVSVLELRVQPVMGISLTLSRGTAHPGEVTATCWAQSALPAPKQEVALSLWLSFSDHTVAPAELYDRRDLGLSVSAEEPGAILPAEEQGAQLGVVVSGAGAEGLPLHVALHPPEPCRRGRHRVPLASGTAWLGLPPASTPAPALPSSPAWSPPATEATMGGKRQVAGSVGGNTGVRGKFERAEEEARKEETEAREEEEEEEEEMVPAPQHVTELELGMYALLGVFCVAIFIFLVNGVVFVLRYQRKEPPDSATDPTSPQPHNWVWLGTDQEELSRQLDRQSPGPPKGEGSCPCESGGGGEAPTLAPGPPGGTTSSSSTLARKEAGGRRKRVEFVTFAPAPPAQSPEEPVGAPAVQSILVAGEEDIRWVCEDMGLKDPEELRNYMERIRGSS
–	–	binds weakly	WLS-HA truncation aa 429-541 (domain or fragment, UniProt Q6DID7-1 429-541) IFRFKFLMLITLACAAMTVIFFIVSQVSEGHWKWGGVTVQVSSAFFTGIYGMWNLYVFALMFLYAPSHKNYGEDQSNGDLGVHSGEELQLTTTITHVDGPTEIYKLTRKEAQE
–	–	binds weakly	WLS-HA truncation aa 332-428 (domain or fragment, UniProt Q6DID7-1 332-428) IAGYWKQVGPIAVGSFCLFIFDMCERGVQLTNPFYSIWTTDVGTELAMAFIIVAGICLCLYFLFLCFMVFQVFRNISGKQSSLPAMSKVRRLHYEGL
–	–	binds	endogenous WLS of HEK 293T cells (protein, UniProt Q5T9L3 1-541) MAGAIIENMSTKKLCIVGGILLVFQIIAFLVGGLIAPGPTTAVSYMSVKCVDARKNHHKTKWFVPWGPNHCDKIRDIEEAIPREIEANDIVFSVHIPLPHMEMSPWFQFMLFILQLDIAFKLNNQIRENAEVSMDVSLAYRDDAFAEWTEMAHERVPRKLKCTFTSPKTPEHEGRYYECDVLPFMEIGSVAHKFYLLNIRLPVNEKKKINVGIGEIKDIRLVGIHQNGGFTKVWFAMKTFLTPSIFIIMVWYWRRITMMSRPPVLLEKVIFALGISMTFINIPVEWFSIGFDWTWMLLFGDIRQGIFYAMLLSFWIIFCGEHMMDQHERNHIAGYWKQVGPIAVGSFCLFIFDMCERGVQLTNPFYSIWTTDIGTELAMAFIIVAGICLCLYFLFLCFMVFQVFRNISGKQSSLPAMSKVRRLHYEGLIFRFKFLMLITLACAAMTVIFFIVSQVTEGHWKWGGVTVQVNSAFFTGIYGMWNLYVFALMFLYAPSHKNYGEDQSNGDLGVHSGEELQLTTTITHVDGPTEIYKLTRKEAQE
